Experimental data: article PMC5342215
Results are given in words; binding and its absence hold for the method and conditions named. Binding seen in cells or lysates may run through a third protein.

Experiments:
[1] = molecular target: T1, RapGEF1 (human (endogenous in primary CD4+ T cells)) (UniProt Q13905); experiment: co-IP; anti-RapGEF1 antibody (or isotype control) on Protein G Dynabeads; lysate of primary human resting CD4+ T cells in Triton lysis buffer (10mM HEPES, 2mM MgCl2, 10mM KCl, 0.5mM EDTA, 150mM NaCl, 0.5% Triton), 4h at 4°C; cells stimulated with 50ng/ml PMA if indicated; western blot
T1 sequence: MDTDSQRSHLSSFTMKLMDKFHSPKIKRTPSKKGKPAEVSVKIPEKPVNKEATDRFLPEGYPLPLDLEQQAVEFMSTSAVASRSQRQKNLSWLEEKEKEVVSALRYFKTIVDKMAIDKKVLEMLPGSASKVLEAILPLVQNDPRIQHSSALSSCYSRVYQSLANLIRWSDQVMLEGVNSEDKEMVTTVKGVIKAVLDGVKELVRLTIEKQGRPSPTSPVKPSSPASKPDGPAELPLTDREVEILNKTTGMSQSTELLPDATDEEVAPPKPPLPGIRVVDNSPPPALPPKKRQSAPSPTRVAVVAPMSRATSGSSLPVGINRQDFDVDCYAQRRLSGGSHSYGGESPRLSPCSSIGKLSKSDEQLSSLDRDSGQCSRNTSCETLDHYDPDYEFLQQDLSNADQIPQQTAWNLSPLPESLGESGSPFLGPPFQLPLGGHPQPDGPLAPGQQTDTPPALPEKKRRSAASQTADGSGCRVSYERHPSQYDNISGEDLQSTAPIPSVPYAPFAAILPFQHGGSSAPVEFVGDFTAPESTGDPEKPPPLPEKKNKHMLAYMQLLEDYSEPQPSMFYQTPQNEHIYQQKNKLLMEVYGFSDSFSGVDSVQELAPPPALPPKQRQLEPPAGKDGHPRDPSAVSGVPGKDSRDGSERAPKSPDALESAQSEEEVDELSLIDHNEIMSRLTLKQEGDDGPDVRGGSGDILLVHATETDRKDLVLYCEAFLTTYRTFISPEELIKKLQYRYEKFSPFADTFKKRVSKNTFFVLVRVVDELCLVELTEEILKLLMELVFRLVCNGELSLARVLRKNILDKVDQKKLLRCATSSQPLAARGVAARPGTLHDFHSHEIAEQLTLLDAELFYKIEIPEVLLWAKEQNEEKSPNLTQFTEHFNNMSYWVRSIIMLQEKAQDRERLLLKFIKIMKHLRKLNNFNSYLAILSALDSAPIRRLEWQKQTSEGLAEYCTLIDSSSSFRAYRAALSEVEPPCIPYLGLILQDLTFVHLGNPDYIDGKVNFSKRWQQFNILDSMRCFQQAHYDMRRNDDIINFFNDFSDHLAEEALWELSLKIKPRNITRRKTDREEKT

[2] = molecular target: T2, dynamin2 (human (endogenous in primary CD4+ T cells)) (UniProt P50570); experiment: co-IP; anti-dynamin2 antibody (or isotype control) on Protein G Dynabeads; lysate of primary human resting CD4+ T cells in Triton lysis buffer (10mM HEPES, 2mM MgCl2, 10mM KCl, 0.5mM EDTA, 150mM NaCl, 0.5% Triton), 4h at 4°C; cells stimulated with 50ng/ml PMA if indicated; western blot
T2 sequence: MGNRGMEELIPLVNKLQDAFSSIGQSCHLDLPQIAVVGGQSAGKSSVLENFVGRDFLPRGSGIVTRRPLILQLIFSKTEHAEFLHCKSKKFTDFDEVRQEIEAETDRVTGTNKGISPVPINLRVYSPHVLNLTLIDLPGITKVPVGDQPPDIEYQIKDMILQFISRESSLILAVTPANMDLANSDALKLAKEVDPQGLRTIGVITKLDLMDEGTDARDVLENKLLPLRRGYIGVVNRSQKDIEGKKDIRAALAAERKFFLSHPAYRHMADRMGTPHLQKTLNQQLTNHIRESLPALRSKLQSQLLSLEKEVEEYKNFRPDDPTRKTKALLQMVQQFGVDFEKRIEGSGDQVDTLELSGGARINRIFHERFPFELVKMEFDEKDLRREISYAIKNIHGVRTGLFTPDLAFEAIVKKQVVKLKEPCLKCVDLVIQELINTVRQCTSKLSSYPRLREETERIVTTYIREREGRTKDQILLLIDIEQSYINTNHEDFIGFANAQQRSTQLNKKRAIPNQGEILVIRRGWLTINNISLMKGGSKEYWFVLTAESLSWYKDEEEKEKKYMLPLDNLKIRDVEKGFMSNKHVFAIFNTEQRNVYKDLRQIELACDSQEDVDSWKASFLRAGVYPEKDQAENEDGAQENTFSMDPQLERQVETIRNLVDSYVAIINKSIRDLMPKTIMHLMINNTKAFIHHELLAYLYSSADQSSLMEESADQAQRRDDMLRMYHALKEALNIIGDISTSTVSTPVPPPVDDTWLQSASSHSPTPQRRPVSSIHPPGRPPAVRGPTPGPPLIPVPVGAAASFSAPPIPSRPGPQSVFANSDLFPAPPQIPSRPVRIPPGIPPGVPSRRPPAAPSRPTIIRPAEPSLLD

binding [1]: no binding
binding [2]: no binding
Substance: Rap1 (Ras-related protein 1)
